No constants are given. Whether binding was seen depends on the method and setting. In cells and extracts the contact can be indirect. Some entries that bind do so weakly or less than the wild type.

By UniProt entry, the sequences of proteins in these tests, tags left out. Residues count along the entry.
UniProt P11021, residues 19-654: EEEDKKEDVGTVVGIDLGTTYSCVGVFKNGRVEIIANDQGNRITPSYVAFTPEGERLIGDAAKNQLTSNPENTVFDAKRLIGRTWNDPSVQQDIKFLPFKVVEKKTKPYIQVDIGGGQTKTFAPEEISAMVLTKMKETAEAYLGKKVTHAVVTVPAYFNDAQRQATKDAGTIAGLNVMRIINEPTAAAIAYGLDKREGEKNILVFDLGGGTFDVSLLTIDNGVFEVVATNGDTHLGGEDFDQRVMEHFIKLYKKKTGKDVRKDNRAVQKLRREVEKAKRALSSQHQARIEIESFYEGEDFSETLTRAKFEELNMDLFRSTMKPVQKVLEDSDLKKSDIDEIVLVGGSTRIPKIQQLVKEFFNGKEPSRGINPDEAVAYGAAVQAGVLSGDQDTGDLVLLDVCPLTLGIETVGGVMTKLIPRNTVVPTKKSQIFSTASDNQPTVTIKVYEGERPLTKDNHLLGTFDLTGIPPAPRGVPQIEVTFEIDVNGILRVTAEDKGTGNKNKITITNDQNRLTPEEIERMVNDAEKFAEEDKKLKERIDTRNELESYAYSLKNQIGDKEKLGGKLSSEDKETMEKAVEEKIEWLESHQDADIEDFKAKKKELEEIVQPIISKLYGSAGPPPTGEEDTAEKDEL

This assay has as its target T1, Dentin matrix protein 1 (human (endogenous in hPDLSCs)) (UniProt Q13316).
T1 sequence: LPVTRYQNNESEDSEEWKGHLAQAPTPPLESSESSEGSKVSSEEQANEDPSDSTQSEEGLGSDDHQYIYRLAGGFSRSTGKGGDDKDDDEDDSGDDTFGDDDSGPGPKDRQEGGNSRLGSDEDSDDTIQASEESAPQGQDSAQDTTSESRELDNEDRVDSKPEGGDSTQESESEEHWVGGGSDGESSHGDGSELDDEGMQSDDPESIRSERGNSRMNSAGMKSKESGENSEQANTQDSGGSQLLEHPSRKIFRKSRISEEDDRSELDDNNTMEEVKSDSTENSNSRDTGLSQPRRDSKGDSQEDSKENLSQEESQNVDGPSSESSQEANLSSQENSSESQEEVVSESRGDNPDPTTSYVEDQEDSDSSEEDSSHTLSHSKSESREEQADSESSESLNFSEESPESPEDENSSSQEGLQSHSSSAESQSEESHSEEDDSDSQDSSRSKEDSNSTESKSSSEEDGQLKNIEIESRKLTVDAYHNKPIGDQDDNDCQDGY
As to the kind of experiment: co-IP; membrane fraction (Mem-PER kit) of hPDLSCs overexpressing GRP78; anti-DMP1 (in house) or control IgG, 10 ug, on Protein A/G magnetic beads, overnight at 4 °C; Western blot probed with anti-GRP78 (1:1000).

Turning to “Glucose regulated protein-78 (from UniProt P11021 19-654)”, the binding result is reported as “binds”.

Source of the values: article PMC6751249.
